Data published in publication PMC12674131.
Results are given in words; binding and its absence hold for the method and conditions named. In cells and extracts the contact can be indirect. Some binding calls cover weakened binding; strength is not graded here.

The chains behind the UniProt entries cited, without tags or fusion partners.
UniProt Q9R1K9: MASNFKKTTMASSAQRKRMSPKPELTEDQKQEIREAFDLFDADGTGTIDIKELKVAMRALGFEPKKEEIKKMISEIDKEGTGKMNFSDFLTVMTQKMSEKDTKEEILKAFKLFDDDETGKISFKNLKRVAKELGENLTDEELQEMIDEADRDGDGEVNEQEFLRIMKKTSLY
UniProt P41209: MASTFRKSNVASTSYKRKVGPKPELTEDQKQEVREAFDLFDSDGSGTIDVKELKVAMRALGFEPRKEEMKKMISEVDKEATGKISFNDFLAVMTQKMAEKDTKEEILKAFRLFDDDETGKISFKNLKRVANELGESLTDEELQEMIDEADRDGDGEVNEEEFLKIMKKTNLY

Legend:
mouse centrin2 (mouse) = mouse centrin2 (mouse) (UniProt Q9R1K9); test: co-IP; WT mouse testis extract (20 mM tris-HCl pH 7.5, 50 mM KCl, 5 mM MgCl2, 10% glycerol, 0.05% Triton X-100, 1 mM beta-mercaptoethanol) incubated 2 hours at 4°C with Dynabeads protein A carrying anti-centrin1 or anti-centrin2 antibodies or control IgG; washed with high-salt buffer (400 mM KCl); eluted with 0.1 M glycine pH 2.5; immunoblot
mouse centrin1 (mouse) = mouse centrin1 (mouse) (UniProt P41209); test: as above

B1: mouse POC5 (protein, UniProt Q9DBS8 1-558)
chain: MSSDEDKCSLHVAHNDSDRSVSTDLQEEYEELLRYAIVNPNVECSASQPSHLRGEVAPDRFPTLAGNNPVRDTELEVGKGSDLNISSHSKSGSPRKPSHPVMDFFSSHVLGDSSSPASLSTRTDAHEINGGEHLVSDENFQKLENILDIWSSGLKTNVLSELSKWRLNFIDWHRMEMKKEKEKHAVVVKQLSNQISDLKELQKAFEISIGRKDEVISNLSRAIGKQKERIELMKSFFRWRIGHVKSRQEIYEGKLADQYFQRTLLKKVWKGWRSVVQRQWKDVVERACQARAEEVCVQISNDYEARLAMLSGALENAKAEIQKMQQEKDHFEDSMKKAFMRGVCALNLEAMTIFQNKNEAGIDFTNNKKEESGPGGPGREPSAHLDTSSSTMPSAVPSQLLPSGPLAAGVASATAFPSAASLTSAGATSASSLHVPISILSAGSAAAPAPEESYAPRVVTAAQQKAGKTITARITGRSDFGSKARINSSLAIMGVSPPMGSVVVEKHHPVTVQTIPQATAAKYPRTIHPESSISASRSLGARPGHAQSLSVQSIKVVD
B1 was tested, and the binding (mouse centrin2 (mouse)) was “binds” and the binding (mouse centrin1 (mouse)) was “binds”.
